These results are taken from PMC9204419, “A Toolbox for the Generation of Chemical Probes for Baculovirus IAP Repeat Containing Proteins” (Frontiers in Cell and Developmental Biology, 2022).

Sequences of proteins named here, by UniProt entry; tags and fusion partners are left off. Residues count along the entry.
UniProt Q13490, 260-352 limits assumed: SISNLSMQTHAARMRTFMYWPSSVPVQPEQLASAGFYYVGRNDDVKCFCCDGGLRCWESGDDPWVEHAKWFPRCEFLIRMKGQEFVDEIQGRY

The target of this experiment is BIRC2-BIR3 domain (Homo sapiens, UniProt Q13490). The experiment in a line: Differential scanning fluorimetry (DSF). Particulars: difference in melting temperature to DMSO control; 20 μM protein, 40 μM inhibitor; mean ± SD, n = 3. In general terms: DSF heats the sample and reads unfolding from a dye or from intrinsic fluorescence.

Structures are written as SMILES. A number of entries come with more than one value. The other results are left out here. The source may hold further records. The records of an entry differ for a reason that is not stated; dose, time, organism, isomer or construct need not be as stated for each record.

With `CN[C@@H](C)C(=O)N[C@H](C(=O)N1CCC[C@H]1C(=O)N[C@H](C(=O)NCCCCCCNC(=O)[C@@H](NC(=O)[C@@H]1CCCN1C(=O)[C@@H](NC(=O)[C@H](C)NC)C1CCCCC1)C(c1ccccc1)c1ccccc1)C(c1ccccc1)c1ccccc1)C1CCCCC1` [BV-6], the “DSF Assay ΔTm” value is “less than 10 °C and 9.1 ± 0.0 °C”.
